Results deposited as PubChem BioAssay AID1259424 (University of Nebraska Medical Center, 2018)
Shown is an unselected part of about 14,000 reagents tested. 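Higher correlation or smaller distance means closer resemblance to KSR1 loss; control wells, including KSR1 knockdowns, recur on many plates.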 Not all columns of the deposit are shown. Not stated in the record: the time to read-out.

- Assay: 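Find knockdowns that reproduce the expression shifts seen after KSR1 loss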 (primary screen)
- Cells: human HCT116 colon cancer cells
- Knock-down reagent: siRNA pool against human genes, 50 nM
- Measurement: 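Log2 levels of six mRNAs (branched-DNA multiplex), adjusted by two reference genes and the non-targeting median, then scored against the average KSR1 knockdown pattern as Pearson r and euclidean distance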
- Scale: mean correlation with KSR1 profile: higher = expression change more like KSR1 knockdown; mean distance from KSR1 profile: higher = expression change less like KSR1 knockdown

{"target": "PROM1 (prominin 1)", "mean correlation with KSR1 profile": -0.132, "mean distance from KSR1 profile": 3.25}
{"target": "KIF9 (kinesin family member 9)", "mean correlation with KSR1 profile": -0.0272, "mean distance from KSR1 profile": 1.31}
{"target": "NR3C1 (nuclear receptor subfamily 3 group C member 1)", "mean correlation with KSR1 profile": 0.718, "mean distance from KSR1 profile": 1.43}
{"target": "SYT3 (synaptotagmin 3)", "mean correlation with KSR1 profile": 0.576, "mean distance from KSR1 profile": 1.51}
{"target": "MUC6 (mucin 6, oligomeric mucus/gel-forming (gene/pseudogene))", "mean correlation with KSR1 profile": 0.234, "mean distance from KSR1 profile": 2.84}
{"target": "CHRNB2 (cholinergic receptor nicotinic beta 2 subunit)", "mean correlation with KSR1 profile": -0.657, "mean distance from KSR1 profile": 3.8}
{"target": "SF3A1 (splicing factor 3a subunit 1)", "mean correlation with KSR1 profile": -0.00389, "mean distance from KSR1 profile": 2.37}
{"target": "IL37 (interleukin 37)", "mean correlation with KSR1 profile": -0.525, "mean distance from KSR1 profile": 2.19}
{"target": "LNPEP (leucyl and cystinyl aminopeptidase)", "mean correlation with KSR1 profile": 0.167, "mean distance from KSR1 profile": 1.97}
{"target": "HEATR1 (HEAT repeat containing 1)", "mean correlation with KSR1 profile": -0.877, "mean distance from KSR1 profile": 3.16}
{"target": "RPL8 (ribosomal protein L8)", "mean correlation with KSR1 profile": 0.473, "mean distance from KSR1 profile": 4.46}
{"target": "SYT15 (synaptotagmin 15)", "mean correlation with KSR1 profile": 0.845, "mean distance from KSR1 profile": 2.74}

2 consecutive records from above, quoted:
{"target": "SF3A1 (splicing factor 3a subunit 1)", "mean correlation with KSR1 profile": -0.00389, "mean distance from KSR1 profile": 2.37}
{"target": "IL37 (interleukin 37)", "mean correlation with KSR1 profile": -0.525, "mean distance from KSR1 profile": 2.19}

The results go on:
{"target": "MGC13053 (retired record)", "mean correlation with KSR1 profile": -0.075, "mean distance from KSR1 profile": 2.38}
{"target": "DNAAF5 (dynein axonemal assembly factor 5)", "mean correlation with KSR1 profile": 0.236, "mean distance from KSR1 profile": 1.5}
{"target": "CMTM7 (CKLF like MARVEL transmembrane domain containing 7)", "mean correlation with KSR1 profile": 0.231, "mean distance from KSR1 profile": 1.86}
{"target": "GPA33 (glycoprotein A33)", "mean correlation with KSR1 profile": -0.117, "mean distance from KSR1 profile": 2.7}
{"target": "PPP1R7 (protein phosphatase 1 regulatory subunit 7)", "mean correlation with KSR1 profile": 0.191, "mean distance from KSR1 profile": 1.68}
{"target": "STAR (steroidogenic acute regulatory protein)", "mean correlation with KSR1 profile": -0.591, "mean distance from KSR1 profile": 2.03}
{"target": "XAF1 (XIAP associated factor 1)", "mean correlation with KSR1 profile": 0.0333, "mean distance from KSR1 profile": 1.61}
